Data published in PMC12658745.
These are yes or no findings as the source states them, for the method shown. In cells and extracts the contact can be indirect. Some results given as binding are weak or reduced against the parent protein; the word gives no strength. One block for each molecule: values may come before it.

Amino acid sequences for entries named in this document (tags omitted).
UniProt P14618: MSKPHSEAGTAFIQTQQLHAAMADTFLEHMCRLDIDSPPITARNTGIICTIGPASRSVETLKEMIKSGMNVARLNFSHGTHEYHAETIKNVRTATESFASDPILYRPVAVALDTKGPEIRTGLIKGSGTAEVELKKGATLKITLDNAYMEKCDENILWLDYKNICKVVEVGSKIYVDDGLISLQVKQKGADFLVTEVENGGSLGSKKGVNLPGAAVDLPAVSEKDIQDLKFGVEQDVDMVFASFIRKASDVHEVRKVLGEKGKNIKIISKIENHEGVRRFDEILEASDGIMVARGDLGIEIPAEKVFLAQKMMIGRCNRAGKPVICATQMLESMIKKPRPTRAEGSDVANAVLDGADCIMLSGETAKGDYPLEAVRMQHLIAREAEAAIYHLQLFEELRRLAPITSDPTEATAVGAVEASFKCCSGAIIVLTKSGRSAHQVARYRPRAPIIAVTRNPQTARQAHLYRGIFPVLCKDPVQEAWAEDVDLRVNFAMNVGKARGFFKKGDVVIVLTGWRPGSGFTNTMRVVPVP

Assays:
[1] = target: T1, PTP4A1 (human (endogenous in HN6 and SCC25)) (UniProt Q93096); test: co-IP; endogenous proteins in HN6 (and, for PTP4A1 with PKM2, SCC25) cell lysates; lysis in ice-cold Co-IP buffer (TBS pH 7.4, 1% NP-40 or Triton X-100, inhibitors); antibody overnight at 4°C, Protein A/G agarose beads, Western blot; control IgG IP alongside
T1 sequence: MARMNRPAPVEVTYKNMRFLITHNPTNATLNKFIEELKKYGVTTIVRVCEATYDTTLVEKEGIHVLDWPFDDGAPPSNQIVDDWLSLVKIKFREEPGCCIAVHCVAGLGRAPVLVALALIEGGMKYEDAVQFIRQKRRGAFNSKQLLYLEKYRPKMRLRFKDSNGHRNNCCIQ

[2] = target: T2, GINS complex subunit 2 (GINS2) (human (endogenous in HN6)) (UniProt Q9Y248); test: as above
T2 sequence: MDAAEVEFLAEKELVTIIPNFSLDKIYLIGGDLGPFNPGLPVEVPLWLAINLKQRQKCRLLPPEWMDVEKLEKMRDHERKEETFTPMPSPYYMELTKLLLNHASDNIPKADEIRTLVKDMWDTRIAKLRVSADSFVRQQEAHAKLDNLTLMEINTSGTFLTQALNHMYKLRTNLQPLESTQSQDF

binding [1]: binds
Molecule: PKM2 (from UniProt P14618 1-531)

binding [1]: binds
B1: GINS complex subunit 2 (GINS2) (protein, UniProt Q9Y248 1-185)
chain: T2 sequence

binding [2]: binds
B2: PTP4A1 (protein, UniProt Q93096 1-173)
chain: T1 sequence
